Source: article PMC12119004
Results are given in words; binding and its absence hold for the method and conditions named. In cells and extracts the contact can be indirect. These calls come from enrichment with a bait or labelling near it, and not all partners need be listed. Where a sequence is shown, tags or fusion partners need not be part of it.

Biological target: T1, His-tagged MIC25 (UniProt Q9BRQ6)
T1 sequence: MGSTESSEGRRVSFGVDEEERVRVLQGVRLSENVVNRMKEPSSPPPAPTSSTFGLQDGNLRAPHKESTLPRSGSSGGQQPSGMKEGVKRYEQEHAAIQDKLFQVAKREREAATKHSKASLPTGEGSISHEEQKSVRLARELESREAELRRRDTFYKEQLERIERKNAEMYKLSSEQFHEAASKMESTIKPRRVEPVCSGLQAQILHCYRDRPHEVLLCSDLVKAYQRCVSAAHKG
Assay: affinity purification with mass spectrometry; His-tagged MIC25 as bait on Ni-NTA beads; pull-down samples digested in gel and compared (MIC25 background excluded) by mass spectrometry; sample pulled down not stated; only the target purified

binding: binds
Substance: CHCH3
